Measurements reported in PubChem BioAssay AID1259331 (Drosophila RNAi Screening Center, 2017).
Screen: 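Fly transmembrane-protein genes that affect zinc toxicity in cultured cells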 (primary screen). Cells: Drosophila S2R+ cells. Reagents: long dsRNA against Drosophila genes. Timing: 5 days (4 days knock-down, then 1 day zinc). Treatment: zinc chloride at 15 mM final level for 1 day. Measured: 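Luminescent ATP assay standing in for viability; Z score is the mean over three replicate plates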. Scale: mean Z score: higher = more ATP than other wells, better survival under zinc; ATP luminescence: higher = more ATP, more viable cells. Rule for the call: 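Hit when the absolute Z score is greater than 1.5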. Calls: active = hit, ATP up or down; inactive = not a hit.
The whole screen tested about 3,100 reagents; below is a part drawn at random. In the full data, 126 (4.1%) are marked active. 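Calls are per reagent; zinc was so toxic that few knock-downs lowered ATP further, so most hits raise ATP.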 Raw values are not corrected between plates. Names joined by + are all predicted targets of the reagent. No sequences are given here. Not stated in the record: the amount of reagent.

target	DRSC id	mean Z score	ATP luminescence, replicate 1	ATP luminescence, replicate 2	Call
Gr10a (GeneID 117501)	DRSC22792	-0.652	43890	38770	inactive
Gr10a (GeneID 117501)	DRSC26071	-0.0914	51321	54647	inactive
ACXB (GeneID 53427)	DRSC26343	0.571	66926	67475	inactive
ACXB (GeneID 53427)	DRSC39703	0.691	67429	71690	inactive
rho-6 (GeneID 34640)	DRSC02588	-0.64	40097	36730	inactive
rho-6 (GeneID 34640)	DRSC29070	0.0866	59616	65897	inactive
CG6790 (GeneID 41388)	DRSC16117	-0.0566	43422	45645	inactive
GluRIIA (GeneID 33788)	DRSC03334	-0.144	46486	38770	inactive
Ca-alpha1T (GeneID 31550)	DRSC17842	0.359	69854	74181	inactive
Ca-alpha1T (GeneID 31550)	DRSC18357	-0.598	32149	34244	inactive
Ca-alpha1T (GeneID 31550)	DRSC21430	-0.734	47069	34690	inactive
Pis (GeneID 32506)	DRSC20178	0.421	74867	71145	inactive
Pis (GeneID 32506)	DRSC29976	0.101	49986	48064	inactive
rasp (GeneID 44098)	DRSC08191	0.0585	72500	64490	inactive
rasp (GeneID 44098)	DRSC39831	0.233	59620	59391	inactive
ND-MWFE (GeneID 5740593)	DRSC06364	0.442	46505	49023	inactive
ds (GeneID 33245)	DRSC00815	1.09	60777	54184	inactive
Or83a + CG1172	DRSC12357	-0.183	66634	58711	inactive
Or83a + CG1172	DRSC39904	-0.0933	54579	64542	inactive
Gr59e (GeneID 37725)	DRSC04276	0.269	54819	40708	inactive
Gr59e (GeneID 37725)	DRSC39732	0.923	74386	75675	inactive
prt (GeneID 117368)	DRSC16894	0.281	40790	61318	inactive
prt (GeneID 117368)	DRSC39457	0.731	59157	63753	inactive
Syx16 (GeneID 33034)	DRSC20507	-0.212	43485	44891	inactive
Syx16 (GeneID 33034)	DRSC27163	0.0756	60495	59432	inactive
sei (GeneID 37843)	DRSC29359	-0.795	39833	58629	inactive
Orco (GeneID 40650)	DRSC12358	-0.485	66446	49572	inactive
Orco (GeneID 40650)	DRSC27061	-1.08	45543	35890	inactive
CG3649 (GeneID 37626)	DRSC04400	0.0028	49520	38873	inactive
CG3649 (GeneID 37626)	DRSC28728	2.28	98625	94492	active
Inx2 (GeneID 31646)	DRSC18783	-0.463	40639	41599	inactive
Inx2 (GeneID 31646)	DRSC24455	-0.121	49812	55779	inactive
Strn-Mlck (GeneID 36753)	DRSC05032	-0.397	27765	28742	inactive
Strn-Mlck (GeneID 36753)	DRSC07471	-0.834	62947	51321	inactive
Strn-Mlck (GeneID 36753)	DRSC37023	-0.297	43742	42730	inactive
disp (GeneID 44274)	DRSC12376	-0.711	62021	48697	inactive
disp (GeneID 44274)	DRSC39842	-0.223	52195	53996	inactive
sut3 (GeneID 44268)	DRSC07702	0.319	77714	80167	inactive
sut3 (GeneID 44268)	DRSC24322	0.514	64679	63133	inactive
TM9SF3 (GeneID 38635)	DRSC09747	-0.0814	76685	57322	inactive
PIG-C (GeneID 38410)	DRSC08241	0.139	81098	63873	inactive
nAChRbeta2 (GeneID 42920)	DRSC17010	-0.423	42216	40656	inactive
PGRP-SC1b (GeneID 35861)	DRSC07215	-0.2	28776	29136	inactive
Ptpmeg2 (GeneID 31907)	DRSC18277	-0.122	63187	64885	inactive
Ptpmeg2 (GeneID 31907)	DRSC23303	1.88	72002	73477	active
Ptpmeg2 (GeneID 31907)	DRSC26646	0.345	65760	65605	inactive
dy (GeneID 32130)	DRSC20325	-0.48	55234	61009	inactive
dy (GeneID 32130)	DRSC25539	-0.117	54562	55728	inactive
Tsp3A (GeneID 31244)	DRSC18656	-0.613	54304	57511	inactive
Tsp3A (GeneID 31244)	DRSC25654	-0.167	57940	50142	inactive
Eglp1 (GeneID 37736)	DRSC04502	-0.831	26531	23318	inactive
Tmhs (GeneID 38251)	DRSC08231	-0.771	24114	24773	inactive
drd (GeneID 318102)	DRSC19343	0.178	62518	75621	inactive
drd (GeneID 318102)	DRSC26473	-0.584	56862	40167	inactive
CCHa2-R (GeneID 35535)	DRSC04870	0.0598	88503	74524	inactive
CCHa2-R (GeneID 35535)	DRSC04871	-0.26	96052	67698	inactive
Snmp1 (GeneID 42514)	DRSC16168	0.221	45320	57031	inactive
CG14647 (GeneID 40558)	DRSC22497	0.591	65108	70682	inactive
CG14647 (GeneID 40558)	DRSC39593	-0.239	58179	57545	inactive
ppk29 (GeneID 37844)	DRSC04205	-0.348	45068	37279	inactive
ppk29 (GeneID 37844)	DRSC39599	-0.53	58025	49606	inactive
Der-1 (GeneID 33369)	DRSC00301	0.555	61146	67132	inactive
Der-1 (GeneID 33369)	DRSC39555	1.35	84394	74393	inactive
CG1265 (GeneID 38517)	DRSC08288	-0.338	69413	57391	inactive
CG1265 (GeneID 38517)	DRSC39523	-0.0919	50904	45795	inactive
Or67a (GeneID 39109)	DRSC11240	-0.0154	89052	56071	inactive
fz2 (GeneID 40090)	DRSC10087	-0.396	27318	29736	inactive
fz2 (GeneID 40090)	DRSC11349	-0.238	73031	54579	inactive

Only “mean Z score” (3 entries from above):
PGRP-SC1b (GeneID 35861) [DRSC07215]: -0.2
Ptpmeg2 (GeneID 31907) [DRSC18277]: -0.122
Ptpmeg2 (GeneID 31907) [DRSC23303]: 1.88
